Source: patent publication US8821850B2 (Mersana Therapeutics, Inc., priority 2011, dated 2014)

Assay: peptide synthesis

Row | Substance | step yield (late stage modification step) [% yield] | conjugation yield (conjugation step) [% yield]
1 | AF HPA-Boc-L-Alanine | 75 | 
2 | LTVSPNY-Adoa-PEG12-Thioester |  | 51
